The other results are listed elsewhere or left out.
Columns and labels:
Test in all cases: log2 fold change, soluble protein after heating vs DMSO (PISA); higher = thermal stabilisation; K562 lysate, 10 uM; active = over 0.2 and 3.5 SD of the protein, either way, in both replicates (recomputed)
[1] = compound: C1=CC=C(C=C1)[C@H](COC2=CC3=C(C=C2)NC(=O)N3)NC(=O)C4=CC=CN(C4=O)CC5=CC(=C(C=C5)F)F
Procedure, shortened: (§1)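 Values give the log-two fold change in thermal stability against solvent controls, from duplicates. Crude K562 extract at 1 mg/mL protein, made by dounce homogenisation in PBS pH 7.4 with 1 mM MgCl2, was treated with 10 μM compound for 30 min. After 3 min heating across 48°C-58°C, aliquots were pooled, adjusted to 0.5% NP-40 at 4°C and centrifuged at 21,000xg for 90 min. The supernatant was measured by TMTpro 16plex LC-MS/MS with channel sums equalised.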

Amino acid sequences for entries named in this document (tags omitted). A change or cut given only in a name is not applied to a line headed by its entry.
UniProt Q9NP73: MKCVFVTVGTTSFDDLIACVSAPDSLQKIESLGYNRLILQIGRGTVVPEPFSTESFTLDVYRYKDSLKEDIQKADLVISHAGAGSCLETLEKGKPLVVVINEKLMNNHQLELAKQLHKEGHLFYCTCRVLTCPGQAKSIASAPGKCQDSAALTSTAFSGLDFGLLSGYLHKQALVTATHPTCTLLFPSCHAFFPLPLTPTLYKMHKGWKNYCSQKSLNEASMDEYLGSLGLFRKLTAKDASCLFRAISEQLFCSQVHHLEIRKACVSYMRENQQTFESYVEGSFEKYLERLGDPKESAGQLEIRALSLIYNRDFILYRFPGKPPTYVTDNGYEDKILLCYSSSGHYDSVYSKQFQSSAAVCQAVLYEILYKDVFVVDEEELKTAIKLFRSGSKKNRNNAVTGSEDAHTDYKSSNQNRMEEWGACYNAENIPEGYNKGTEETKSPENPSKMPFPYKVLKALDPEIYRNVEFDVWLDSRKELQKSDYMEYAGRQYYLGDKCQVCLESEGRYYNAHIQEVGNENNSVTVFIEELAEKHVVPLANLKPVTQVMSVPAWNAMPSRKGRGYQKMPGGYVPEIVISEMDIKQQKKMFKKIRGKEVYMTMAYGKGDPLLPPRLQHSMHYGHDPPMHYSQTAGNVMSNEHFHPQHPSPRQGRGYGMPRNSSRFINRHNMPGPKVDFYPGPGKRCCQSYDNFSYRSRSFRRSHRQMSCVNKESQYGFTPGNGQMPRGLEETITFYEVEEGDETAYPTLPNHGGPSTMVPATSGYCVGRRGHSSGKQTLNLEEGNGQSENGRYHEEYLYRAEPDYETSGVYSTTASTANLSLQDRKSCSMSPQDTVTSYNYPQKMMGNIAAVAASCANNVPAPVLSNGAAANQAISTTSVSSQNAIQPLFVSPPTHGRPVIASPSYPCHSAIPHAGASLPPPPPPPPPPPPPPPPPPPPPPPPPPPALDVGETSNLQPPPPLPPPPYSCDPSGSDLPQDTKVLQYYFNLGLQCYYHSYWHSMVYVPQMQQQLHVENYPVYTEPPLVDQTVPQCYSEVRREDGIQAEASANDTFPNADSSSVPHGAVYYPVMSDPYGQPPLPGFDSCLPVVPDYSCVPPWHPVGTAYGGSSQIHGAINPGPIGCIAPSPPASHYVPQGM
UniProt Q9BXS5: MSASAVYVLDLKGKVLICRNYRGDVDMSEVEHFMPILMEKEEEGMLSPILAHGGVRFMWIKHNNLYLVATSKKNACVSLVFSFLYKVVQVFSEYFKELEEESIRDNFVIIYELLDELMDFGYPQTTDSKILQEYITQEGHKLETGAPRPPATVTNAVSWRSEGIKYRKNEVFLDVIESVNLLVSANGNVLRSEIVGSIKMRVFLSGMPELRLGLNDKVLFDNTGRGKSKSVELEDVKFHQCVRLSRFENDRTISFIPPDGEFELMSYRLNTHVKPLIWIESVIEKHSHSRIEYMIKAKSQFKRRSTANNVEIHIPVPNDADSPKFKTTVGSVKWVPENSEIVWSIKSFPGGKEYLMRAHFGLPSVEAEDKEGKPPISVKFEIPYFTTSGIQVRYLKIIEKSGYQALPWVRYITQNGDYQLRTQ
UniProt P49189: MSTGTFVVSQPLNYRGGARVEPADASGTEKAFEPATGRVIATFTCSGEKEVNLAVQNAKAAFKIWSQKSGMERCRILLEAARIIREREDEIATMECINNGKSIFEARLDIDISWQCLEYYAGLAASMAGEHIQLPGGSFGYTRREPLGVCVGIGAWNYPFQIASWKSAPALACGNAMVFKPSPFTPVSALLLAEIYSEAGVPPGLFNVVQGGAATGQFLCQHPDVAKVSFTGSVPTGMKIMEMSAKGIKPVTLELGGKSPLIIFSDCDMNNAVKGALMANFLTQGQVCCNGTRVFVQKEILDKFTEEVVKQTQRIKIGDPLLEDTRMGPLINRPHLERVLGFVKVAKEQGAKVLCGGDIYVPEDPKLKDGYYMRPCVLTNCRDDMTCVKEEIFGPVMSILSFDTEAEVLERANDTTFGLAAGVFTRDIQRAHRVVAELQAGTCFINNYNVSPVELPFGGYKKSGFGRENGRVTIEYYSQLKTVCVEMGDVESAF
UniProt Q86XL3: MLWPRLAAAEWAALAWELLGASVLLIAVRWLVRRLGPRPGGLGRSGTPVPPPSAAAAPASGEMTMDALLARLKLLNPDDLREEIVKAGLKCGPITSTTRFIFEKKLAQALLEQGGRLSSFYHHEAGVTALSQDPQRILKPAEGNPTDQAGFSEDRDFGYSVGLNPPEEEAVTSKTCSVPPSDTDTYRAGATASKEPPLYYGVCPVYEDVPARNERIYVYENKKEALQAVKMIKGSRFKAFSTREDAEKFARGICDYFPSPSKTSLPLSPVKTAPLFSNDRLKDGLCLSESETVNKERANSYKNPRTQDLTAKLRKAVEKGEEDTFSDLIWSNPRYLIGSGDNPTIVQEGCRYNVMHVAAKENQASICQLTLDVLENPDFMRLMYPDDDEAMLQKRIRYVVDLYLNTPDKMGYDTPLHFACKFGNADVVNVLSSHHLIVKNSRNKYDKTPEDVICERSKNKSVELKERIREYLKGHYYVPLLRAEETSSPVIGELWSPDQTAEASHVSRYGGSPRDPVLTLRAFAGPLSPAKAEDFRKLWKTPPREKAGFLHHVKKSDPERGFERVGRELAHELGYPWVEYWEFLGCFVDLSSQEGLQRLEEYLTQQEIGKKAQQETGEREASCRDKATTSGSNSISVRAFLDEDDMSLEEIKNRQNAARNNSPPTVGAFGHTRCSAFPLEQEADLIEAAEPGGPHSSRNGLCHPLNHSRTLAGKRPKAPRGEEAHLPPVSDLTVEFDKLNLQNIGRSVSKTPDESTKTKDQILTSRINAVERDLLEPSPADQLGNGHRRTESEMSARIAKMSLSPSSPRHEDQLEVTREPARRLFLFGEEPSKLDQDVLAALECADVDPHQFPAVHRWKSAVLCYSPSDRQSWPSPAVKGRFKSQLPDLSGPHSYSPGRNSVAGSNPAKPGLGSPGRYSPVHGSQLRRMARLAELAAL
UniProt O94973, whole entry, looked up: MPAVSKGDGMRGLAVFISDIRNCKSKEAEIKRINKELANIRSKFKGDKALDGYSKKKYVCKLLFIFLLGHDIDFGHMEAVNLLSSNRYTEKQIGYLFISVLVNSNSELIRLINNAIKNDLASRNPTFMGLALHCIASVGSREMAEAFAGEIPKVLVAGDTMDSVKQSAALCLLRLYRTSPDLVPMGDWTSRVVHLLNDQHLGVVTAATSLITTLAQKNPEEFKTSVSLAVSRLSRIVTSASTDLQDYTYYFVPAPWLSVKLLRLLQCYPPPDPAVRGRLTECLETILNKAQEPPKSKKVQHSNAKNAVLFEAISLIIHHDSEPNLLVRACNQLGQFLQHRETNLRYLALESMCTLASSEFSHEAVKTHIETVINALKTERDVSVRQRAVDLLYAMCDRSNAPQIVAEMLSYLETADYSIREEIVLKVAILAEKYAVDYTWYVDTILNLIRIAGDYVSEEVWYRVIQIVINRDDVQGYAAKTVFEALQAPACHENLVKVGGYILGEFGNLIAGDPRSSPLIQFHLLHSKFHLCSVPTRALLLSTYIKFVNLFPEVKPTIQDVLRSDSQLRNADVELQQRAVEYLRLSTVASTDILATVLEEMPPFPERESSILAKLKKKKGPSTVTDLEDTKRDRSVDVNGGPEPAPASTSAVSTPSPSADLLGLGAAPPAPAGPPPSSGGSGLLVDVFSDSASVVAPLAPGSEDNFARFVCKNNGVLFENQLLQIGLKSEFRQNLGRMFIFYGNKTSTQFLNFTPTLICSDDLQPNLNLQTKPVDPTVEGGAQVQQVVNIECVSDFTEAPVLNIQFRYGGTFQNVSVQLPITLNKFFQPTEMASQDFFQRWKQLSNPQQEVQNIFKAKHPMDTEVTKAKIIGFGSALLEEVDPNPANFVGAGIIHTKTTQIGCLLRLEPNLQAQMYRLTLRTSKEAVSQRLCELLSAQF
UniProt Q9P2R3: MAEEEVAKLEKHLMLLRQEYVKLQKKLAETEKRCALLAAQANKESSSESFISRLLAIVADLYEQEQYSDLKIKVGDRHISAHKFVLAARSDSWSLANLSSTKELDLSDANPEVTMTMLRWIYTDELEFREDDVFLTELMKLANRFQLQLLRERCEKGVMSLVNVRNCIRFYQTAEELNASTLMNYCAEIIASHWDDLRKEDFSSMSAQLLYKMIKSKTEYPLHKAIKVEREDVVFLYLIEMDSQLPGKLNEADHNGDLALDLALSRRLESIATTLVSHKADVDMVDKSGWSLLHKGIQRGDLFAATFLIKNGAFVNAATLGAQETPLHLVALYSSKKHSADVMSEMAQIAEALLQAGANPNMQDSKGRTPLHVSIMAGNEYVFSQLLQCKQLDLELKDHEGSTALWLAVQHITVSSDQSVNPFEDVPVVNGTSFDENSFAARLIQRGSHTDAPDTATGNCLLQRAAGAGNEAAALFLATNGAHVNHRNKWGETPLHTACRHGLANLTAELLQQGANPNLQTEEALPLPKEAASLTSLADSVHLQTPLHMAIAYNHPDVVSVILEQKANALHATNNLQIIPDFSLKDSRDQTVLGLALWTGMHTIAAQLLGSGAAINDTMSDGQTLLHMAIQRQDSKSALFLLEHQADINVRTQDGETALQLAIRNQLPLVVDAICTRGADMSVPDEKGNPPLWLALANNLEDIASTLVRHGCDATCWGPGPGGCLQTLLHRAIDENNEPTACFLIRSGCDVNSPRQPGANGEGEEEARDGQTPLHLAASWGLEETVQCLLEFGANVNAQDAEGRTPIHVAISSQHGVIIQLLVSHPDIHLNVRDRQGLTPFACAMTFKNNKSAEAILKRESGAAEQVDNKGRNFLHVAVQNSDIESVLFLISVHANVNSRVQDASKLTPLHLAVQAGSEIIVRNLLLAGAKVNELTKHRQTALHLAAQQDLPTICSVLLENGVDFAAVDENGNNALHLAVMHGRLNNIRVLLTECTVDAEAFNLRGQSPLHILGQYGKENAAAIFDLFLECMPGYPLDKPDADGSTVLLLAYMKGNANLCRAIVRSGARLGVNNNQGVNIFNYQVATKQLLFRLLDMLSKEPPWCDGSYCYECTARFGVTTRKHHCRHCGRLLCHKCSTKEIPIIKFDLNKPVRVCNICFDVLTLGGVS
UniProt Q9NW15: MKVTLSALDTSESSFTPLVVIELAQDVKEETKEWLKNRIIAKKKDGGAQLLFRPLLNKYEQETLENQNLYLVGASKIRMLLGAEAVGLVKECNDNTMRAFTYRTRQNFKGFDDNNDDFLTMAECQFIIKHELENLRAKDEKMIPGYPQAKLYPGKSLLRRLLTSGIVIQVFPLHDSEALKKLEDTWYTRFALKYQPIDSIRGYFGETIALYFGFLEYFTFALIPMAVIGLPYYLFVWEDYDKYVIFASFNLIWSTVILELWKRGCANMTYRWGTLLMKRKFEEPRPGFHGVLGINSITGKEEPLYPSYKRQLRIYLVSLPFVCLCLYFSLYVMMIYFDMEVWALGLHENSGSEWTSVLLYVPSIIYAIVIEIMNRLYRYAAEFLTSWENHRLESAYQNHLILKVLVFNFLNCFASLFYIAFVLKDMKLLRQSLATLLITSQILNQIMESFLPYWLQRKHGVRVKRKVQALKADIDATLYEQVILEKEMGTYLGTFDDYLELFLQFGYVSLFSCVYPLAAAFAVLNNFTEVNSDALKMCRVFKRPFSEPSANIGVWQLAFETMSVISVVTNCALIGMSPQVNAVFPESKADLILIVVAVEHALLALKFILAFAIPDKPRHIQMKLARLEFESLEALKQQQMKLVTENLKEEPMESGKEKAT
UniProt P56377: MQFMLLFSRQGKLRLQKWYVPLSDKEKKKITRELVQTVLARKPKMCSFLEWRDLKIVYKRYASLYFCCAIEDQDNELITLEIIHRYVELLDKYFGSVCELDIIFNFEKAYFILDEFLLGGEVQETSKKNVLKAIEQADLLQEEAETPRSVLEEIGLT
UniProt P17707: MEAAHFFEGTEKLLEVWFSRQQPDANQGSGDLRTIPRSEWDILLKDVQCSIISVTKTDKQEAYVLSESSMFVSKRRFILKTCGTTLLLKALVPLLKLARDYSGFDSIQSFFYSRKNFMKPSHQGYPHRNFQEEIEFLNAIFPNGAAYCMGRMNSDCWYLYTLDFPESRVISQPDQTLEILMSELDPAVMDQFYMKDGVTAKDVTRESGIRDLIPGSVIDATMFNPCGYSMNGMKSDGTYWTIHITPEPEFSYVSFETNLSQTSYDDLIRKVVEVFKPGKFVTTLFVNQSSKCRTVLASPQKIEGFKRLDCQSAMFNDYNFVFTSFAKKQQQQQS
UniProt P27216: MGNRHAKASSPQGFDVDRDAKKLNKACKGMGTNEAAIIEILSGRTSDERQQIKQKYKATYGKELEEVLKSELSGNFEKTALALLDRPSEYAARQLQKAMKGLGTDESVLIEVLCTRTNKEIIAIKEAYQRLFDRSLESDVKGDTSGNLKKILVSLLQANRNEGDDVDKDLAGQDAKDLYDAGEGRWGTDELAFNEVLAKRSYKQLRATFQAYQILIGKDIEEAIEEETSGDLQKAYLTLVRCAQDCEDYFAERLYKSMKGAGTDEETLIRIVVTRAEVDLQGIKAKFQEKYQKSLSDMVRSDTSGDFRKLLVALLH

[2] = compound: CC1=C(SC2=C1C(=N[C@H](C3=NN=C(N32)C)CC(=O)N)C4=CC=C(C=C4)Cl)C
Procedure, shortened: as §1

[3] = compound: CC1=C2C(=CC=C1)N=C(N(C2=O)C3=CC=CC=C3C)CN4C=NC5=C(N=CN=C54)N
Procedure, shortened: as §1

[4] = compound: Cc1sc2c(c1C)C(c1ccc(Cl)cc1)=N[C@@H](CC(=O)OC(C)(C)C)c1nnc(C)n1-2
Procedure, shortened: as §1

[5] = compound: c1ccc([C@@H]2C[C@H]2NC2CCNCC2)cc1
Procedure, shortened: as §1

Measured: log2 fold change

ALG13 (UniProt Q9NP73)
inactive: [1] -0.015 | [2] -0.018 | [3] 0.09 | [4] 0.037 | [5] -0.087

AP1M1 (UniProt Q9BXS5)
inactive: [1] -0.007 | [2] -0.005 | [3] -0.014 | [4] -0.031 | [5] -0.018

ALDH9A1 isoform 3 (UniProt P49189)
inactive: [1] 0.028 | [2] -0.014 | [3] -0.015 | [4] 0.017 | [5] 0.056

ANKLE2 (UniProt Q86XL3)
inactive: [1] -0.015 | [2] 0.017 | [3] -0.066 | [4] 0.042 | [5] 0.045

ALG2 (UniProt Q9H553)
inactive: [1] 0.051 | [2] 0.093 | [3] 0.089 | [4] -0.105 | [5] 0.086

ALG1 (UniProt Q9BT22)
inactive: [1] -0.03 | [2] -0.026 | [3] 0.076 | [4] 0.003 | [5] 0.175

AP2A2 isoform 2 (UniProt O94973)
inactive: [1] -0.016 | [2] 0.007 | [3] 0.016 | [4] 0.023 | [5] -0.013

ANAPC10 (UniProt Q9UM13)
inactive: [1] 0.022 | [2] 0.003 | [3] -0.036 | [4] -0.041 | [5] 0.001

ALDH2 (UniProt P05091)
inactive: [1] 0.029 | [2] -0.028 | [3] -0.022 | [4] -0.018 | [5] 0.01

AP1B1 isoform 3 (UniProt Q10567)
inactive: [1] 0.295 | [2] -0.089

ANKRD49 (UniProt Q8WVL7)
inactive: [1] -0.019 | [2] -0.012 | [3] -0.046 | [4] -0.06 | [5] -0.044

AP1B1 (UniProt Q10567)
inactive: [1] 0.005 | [2] 0.042 | [3] -0.014 | [4] 0.041 | [5] 0.01

ALDH18A1 (UniProt P54886)
inactive: [1] -0.018 | [2] -0.032 | [3] 0.019 | [4] -0.005 | [5] 0.034

AP1S1 (UniProt P61966)
inactive: [1] 0.006 | [2] -0.013 | [3] 0.001 | [4] 0.079 | [5] 0.06

AMZ2 (UniProt Q86W34)
inactive: [1] 0.067 | [2] 0.059 | [3] 0.123 | [4] -0.056

ANKFY1 isoform 4 (UniProt Q9P2R3)
inactive: [1] -0.054 | [2] 0.024 | [3] -0.02 | [4] 0.011 | [5] 0.049

AP4E1 (UniProt Q9UPM8)
inactive: [1] -0.039 | [2] 0.003 | [3] 0.011 | [4] -0.056 | [5] 0.007

ANGEL2 (UniProt Q5VTE6)
inactive: [1] 0.101 | [2] 0.02 | [3] 0.088 | [4] -0.001 | [5] -0.029

ANK1 isoform 14 (UniProt P16157)
inactive: [1] -0.026 | [2] 0.039 | [3] 0.031 | [4] 0.012 | [5] 0.058

Copied from the entries so far (2 entries):
ANGEL2 (UniProt Q5VTE6)
inactive: [1] 0.101 | [2] 0.02 | [3] 0.088 | [4] -0.001 | [5] -0.029

ANK1 isoform 14 (UniProt P16157)
inactive: [1] -0.026 | [2] 0.039 | [3] 0.031 | [4] 0.012 | [5] 0.058

Next part.

ANO10 (UniProt Q9NW15)
inactive: [1] 0.011 | [2] 0.017 | [3] 0.03 | [4] 0.006 | [5] 0.014

AP1S2 isoform 2 (UniProt P56377)
inactive: [1] 0.026 | [2] -0.004 | [3] 0.023 | [4] -0.063 | [5] -0.196

ANXA4 (UniProt P09525)
inactive: [1] 0.011 | [2] 0.003 | [3] 0.01 | [4] -0.023 | [5] 0.034

AMD1 (UniProt P17707)
inactive: [1] -0.027 | [2] 0.01 | [3] -0.017 | [4] 0.005 | [5] -0.019

ANXA13 isoform 2 (UniProt P27216)
inactive: [1] 0.058 | [2] -0.041 | [3] -0.048 | [4] 0.17 | [5] 0.011

From the supplement of paper PMC10849652
